By UniProt entry, the sequences of proteins in these tests, tags left out.
UniProt Q8NER1, whole entry, looked up: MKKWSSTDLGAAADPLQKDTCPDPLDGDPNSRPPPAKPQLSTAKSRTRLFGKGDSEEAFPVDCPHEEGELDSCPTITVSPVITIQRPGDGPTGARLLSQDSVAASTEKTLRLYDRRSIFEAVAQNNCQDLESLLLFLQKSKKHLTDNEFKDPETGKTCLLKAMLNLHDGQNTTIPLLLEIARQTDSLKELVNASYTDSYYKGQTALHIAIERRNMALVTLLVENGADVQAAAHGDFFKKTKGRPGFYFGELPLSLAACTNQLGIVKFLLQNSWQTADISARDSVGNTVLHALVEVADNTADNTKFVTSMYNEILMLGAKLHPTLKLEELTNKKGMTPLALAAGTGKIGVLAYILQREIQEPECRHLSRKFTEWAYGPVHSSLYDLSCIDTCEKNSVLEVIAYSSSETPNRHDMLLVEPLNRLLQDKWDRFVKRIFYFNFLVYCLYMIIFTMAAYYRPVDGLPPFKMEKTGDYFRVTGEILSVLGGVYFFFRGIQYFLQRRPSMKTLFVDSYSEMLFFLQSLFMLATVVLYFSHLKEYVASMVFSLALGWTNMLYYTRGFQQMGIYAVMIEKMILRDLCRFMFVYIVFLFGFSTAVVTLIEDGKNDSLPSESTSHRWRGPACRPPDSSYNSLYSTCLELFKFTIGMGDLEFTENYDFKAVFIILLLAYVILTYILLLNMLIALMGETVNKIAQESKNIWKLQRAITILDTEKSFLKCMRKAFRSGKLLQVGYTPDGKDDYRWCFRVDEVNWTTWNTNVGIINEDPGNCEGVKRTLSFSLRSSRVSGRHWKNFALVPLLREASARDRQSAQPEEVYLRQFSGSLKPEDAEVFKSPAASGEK

In all, about 320,000 compounds went through this assay and about 620 (0.19%) were called active. Inconclusive results, whose numbers are uncertain, are shown with a selection of clear calls. Cut-off read from the data, not from the text of the source: active = activation above about 80%; inconclusive = between about 30% and that limit; inactive = weaker than that.
The molecules below were run against Transient receptor potential cation channel subfamily V member 1 (Homo sapiens) (UniProt Q8NER1) (assay: HTS Assay for Compounds that Act as Agonists of the Vanilloid Receptor 1). Conditions: TRPV1-expressing cells, Fluo-8 calcium influx, agonist mode; at 8.33 µM, stronger effect = higher value.
In short: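 TRPV1-expressing cells were cultured overnight at 35.5C and loaded with Fluo-8 calcium dye for 40 to 90 min at room temperature. After a 10 s baseline, compound was added and calcium influx was read kinetically for 3 min (ex 480/em 520 nm).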
For `Cc1ccc(C(=O)O/N=C(\N)c2ccccn2)cc1Cl`, the activation was inconclusive: 43.4%. With `O=C(NCCc1ccccc1)c1ccc2c(c1)OCO2` the activation was inconclusive: 53.9%. For `Cc1cc(C(=O)OCC(=O)NCc2ccc(Cl)cc2)c(C)o1`, the activation was inconclusive: 31.3%. `CN1CCN(c2ccc(NC(=S)NC(=O)c3cccc4c(Cl)cccc34)cc2)CC1` was tested, and the activation was inactive: -3.35%. For `Cc1ccc(-n2nnnc2CNC(=O)c2ccc3c(c2)OCO3)cc1C`, the activation was inconclusive: 36.8%. With `O=C(CN1CCCCC1)Nc1ccccc1Oc1ccccc1` the activation was inconclusive: 39.8%. With `Cc1ccc(CN2C(=O)C(C)Nc3ncnc(N4CCN(c5ccccn5)CC4)c32)cc1` (stereo not drawn) the activation was inconclusive: 39.4%. With `CC(C)(C)c1cc(C(C)(C)C)cc(S(=O)(=O)CCc2ccccn2)c1` the activation was inconclusive: 53.6%. For `C/C(=N\Nc1nc(C)cc(-c2ccccc2)n1)c1ccc(C)o1`, the activation was inactive: 13.3%. `CCn1nc(C)cc1C(=O)NC1CCCc2c1cnn2-c1ccc(C)c(C)c1` (stereo not drawn) was tested, and the activation was inconclusive: 67.9%. In the case of `COc1ccccc1CN1CCCCC1C(=O)O` (stereo not drawn), the activation is reported as inactive: 1.74%. `CC(COC(=O)c1ccccc1)(COC(=O)c1ccccc1)/[N+]([O-])=C/c1ccccc1` was tested, and the activation was inconclusive: 34.6%. With `COc1cccc(C(=O)NCCSc2ccc(Br)cc2)c1` the activation was inconclusive: 66%. For `Cn1c(CN2CCOCC2)nnc1SCC(=O)Nc1ccc([N+](=O)[O-])cc1O`, the activation was inactive: 0.385%. For `COc1ccc(Nc2nnc(SCC3CCCO3)s2)cc1` (stereo not drawn), the activation was inconclusive: 38.1%. With `O=C(N/N=C/c1ccc(OCc2ccc(F)cc2)cc1)c1ccccc1` the activation was inconclusive: 39.8%. `CC(=O)c1cccc(NC(=O)COC(=O)c2ccc(S(C)(=O)=O)c([N+](=O)[O-])c2)c1` was tested, and the activation was inactive: -0.586%. With `O=C(Nc1ccccc1)N1CCC(c2ccccc2)C1` (stereo not drawn) the activation was inconclusive: 46.2%. With `CCc1nc2ccc(C)cc2c(C(=O)NC2CCCCC2C)c1C` (stereo not drawn) the activation was inconclusive: 35.3%. `CCOc1ccccc1NC(=O)c1oc2ccccc2c1NC(=O)C1CCCO1` (stereo not drawn) was tested, and the activation was inconclusive: 32.3%. `CC(OC(=O)c1ccc2ccccc2c1)C(=O)N(C)Cc1ccccc1` (stereo not drawn) was tested, and the activation was inactive: 0.616%. In the case of `Cc1cc(C(=O)NC2CCCc3ccccc32)ccc1[N+](=O)[O-]` (stereo not drawn), the activation is reported as inconclusive: 49%. `CC(C)(C)OC(=O)N1CCC(CNC(=O)Nc2ccccc2)CC1` was tested, and the activation was inconclusive: 74.3%. `NC(=S)N/N=C/c1ccc(-c2ccc([N+](=O)[O-])cc2)o1` was tested, and the activation was inactive: -1.72%. For `COc1ccc(Cn2c(=O)oc3ccc(C)cc32)cc1OC`, the activation was inconclusive: 35.9%. For `COc1cccc(NC(=O)Cc2nc(-c3ccccc3)sc2-c2ccc(C)cc2)c1`, the activation was inconclusive: 30.2%. For `COc1cccc(OCC(O)CN2CCN(c3ccc(Cl)cc3)CC2)c1` (stereo not drawn), the activation was inactive: 0.743%. For `COc1ccc([C@H]2CC(=O)C=C(c3ccccc3C(F)(F)F)C2)cc1`, the activation was inconclusive: 37.4%. For `CC(C)N1C(=O)C(Cc2nc3ccccc3c(=O)n2-c2ccccc2)c2ccccc21` (stereo not drawn), the activation was inactive: -1.61%. For `COc1ccc(-n2cc(C(=O)c3ccccc3O)cn2)cc1`, the activation was inactive: 6%. With `Cc1nc(CSc2nsc(/C=C/N(C)C)c2C#N)cs1` the activation was inactive: 13.6%. With `O=C(Nc1ccc(F)c(Cl)c1)c1ccc2c(=O)n3c(nc2c1)CCCCC3` the activation was inconclusive: 42.9%. In the case of `O=C(CSc1ncn[nH]1)Nc1ccccc1Sc1ccccc1`, the activation is reported as inactive: -1.79%. In the case of `CCOc1ccc(OCCC(=O)OCC(=O)NCCc2ccc(S(N)(=O)=O)cc2)cc1`, the activation is reported as inactive: -4.99%. For `CCN1C(=O)/C(=C/c2ccc(C)s2)NC1=S`, the activation was inactive: 11.2%. With `O=C(Nc1ccc2ccccc2n1)c1ccccc1` the activation was inconclusive: 55.9%. `CC(C)c1ccc(NCCC(=O)c2cccs2)cc1` was tested, and the activation was active: 89.6%. `CC1CC(C)CN(C(=O)COC(=O)c2ccc3ccccc3n2)C1` (stereo not drawn) was tested, and the activation was inactive: 10.7%. For `O=C(Nc1nnc(-c2ccco2)o1)c1ccc(N2C(=O)CCC2=O)cc1`, the activation was inactive: -7.8%. For `CC(=O)/C(N=Nc1ccc2c(c1)OCO2)=C(\C)O`, the activation was inconclusive: 39.5%. With `NC(=O)c1ccc(C(F)(F)F)n(Cc2ccccc2Cl)c1=O` the activation was inconclusive: 30.4%. For `Cc1ccc(NC(=O)N2CCC(NC(=O)c3cccc(F)c3)CC2)cc1`, the activation was inconclusive: 70.1%. `CSc1ccc(NC(=O)NCc2ccccc2)cc1` was tested, and the activation was inconclusive: 69.5%. With `Cc1cccc(-n2ncc3c(NCc4ccccc4)ncnc32)c1` the activation was inactive: -0.592%. For `O=C(CCC1CCCC1)NC1CCCCC1`, the activation was inconclusive: 40.8%. For `C=CCN(c1ccccc1)S(=O)(=O)c1cccc(C(=O)Nc2cccc(C)n2)c1`, the activation was inconclusive: 43.9%. For `CC[C@@H]1CC=C[C@H]2[C@H]1C(=O)N(Cc1ccccc1)[C@H]2c1cc(C)ccc1F`, the activation was inconclusive: 46.5%. `COc1ccc(C(=O)NCCSCc2ccccc2C)cc1` was tested, and the activation was inconclusive: 58.2%. In the case of `O=C(CN(c1cccc(C(F)(F)F)c1)S(=O)(=O)c1ccc(Cl)c([N+](=O)[O-])c1)NCc1ccccc1Cl`, the activation is reported as inconclusive: 41.3%. In the case of `Cc1cc(C)n(-c2cc(N3CCN(S(=O)(=O)c4ccc(Br)cc4)CC3)ccc2[N+](=O)[O-])n1`, the activation is reported as inconclusive: 33.8%. In the case of `Cc1nn2c(C)c(C(=O)Nc3ccccc3)cnc2c1-c1ccccc1`, the activation is reported as inconclusive: 66.3%. For `c1ccc(C(Cc2nc(-c3ccccn3)no2)c2ccccc2)cc1`, the activation was inconclusive: 74.3%. `Cc1ccc(-c2cc3nc(-c4ccc(Br)cc4)cc(N)n3n2)cc1` was tested, and the activation was inactive: -1.27%. For `O=C(CSCc1cnn(-c2ccccc2)c1-n1cccc1)NCc1cccs1`, the activation was inconclusive: 36.4%. With `CN=C(Nc1ccccc1)SC1CC(=O)N(c2cccc(OC)c2)C1=O` (stereo not drawn) the activation was inconclusive: 38%. In the case of `CC(C)Oc1ccc(CCN=C(N)N=C(N)N)cc1Cl`, the activation is reported as inconclusive: 32%. For `CN(C)c1ccc(/C=C(/C(=O)c2ccc(Cl)cc2Cl)n2cncn2)cc1`, the activation was inconclusive: 70.5%. In the case of `O=C(N/N=C/c1ccsc1)c1ccc2c(c1)OCO2`, the activation is reported as inconclusive: 71.1%.

Source: PubChem BioAssay AID540275 (National Center for Advancing Translational Sciences (NCATS), 2011)
Note: 0% is about no effect.
